Marks after values point to notes of the source that are not given here.
Experiment: Fluorescence comparison of phosphorylated and unphosphorylated peptides in assay mixture without enzyme
Assay type: physicochemical
Conditions: phosphorylated vs unphosphorylated peptide, excitation 360 nm, emission 485 nm
[1] = calculated from single peptide solutions (10 μM)

| Substance | Fluorescence Increase [1] [%^g] | Fluorescence Increase (calculated from slope (units/μM) of product and substrate concentration versus fluorescence intensity) [%^e] |
| --- | --- | --- |
| Ac-Sox-Pro-Gly-Thr-Phe-Arg-Arg-Arg-NH2 (PGTFRRR; Ac; Sox; C-terminal amide; Protein kinase C substrate containing the metal binding amino acid (Sox)) [Ac-Sox-PGT*FRRR-NH2, Sox-containing peptide substrate (sensor) for PKC, threonine phosphorylation site] | 280 | – |
| Ac-Leu-Arg-Arg-Ala-Ser-Leu-Pro-Sox-NH2 (LRRASLP; Ac; Sox; C-terminal amide; Cyclic-AMP dependent kinase (PKA) substrate containing metal binding amino acid (Sox)) [Ac-LRRAS*LP-Sox-NH2, Sox-containing peptide substrate (sensor) for PKA] | – | 300 |
| Ac-Sox-Pro-Gly-Ile-Tyr-Ala-Ala-Pro-Phe-Ala-Lys-Lys-Lys-NH2 (PGIYAAPFAKKK; Ac; Sox; C-terminal amide; Abelson kinase (Abl) substrate containing the metal binding amino acid (Sox)) [Sox-containing peptide substrate (sensor) for Abl] | 400 | – |
